Publication PMC6976685
No constants are given. Whether binding was seen depends on the method and setting. Binding calls can cover weak binding; strength is not graded here.

Sequences of proteins named here, by UniProt entry; tags and fusion partners are left off. A change or cut given only in a name is not applied to a line headed by its entry.
UniProt Q8EJI6: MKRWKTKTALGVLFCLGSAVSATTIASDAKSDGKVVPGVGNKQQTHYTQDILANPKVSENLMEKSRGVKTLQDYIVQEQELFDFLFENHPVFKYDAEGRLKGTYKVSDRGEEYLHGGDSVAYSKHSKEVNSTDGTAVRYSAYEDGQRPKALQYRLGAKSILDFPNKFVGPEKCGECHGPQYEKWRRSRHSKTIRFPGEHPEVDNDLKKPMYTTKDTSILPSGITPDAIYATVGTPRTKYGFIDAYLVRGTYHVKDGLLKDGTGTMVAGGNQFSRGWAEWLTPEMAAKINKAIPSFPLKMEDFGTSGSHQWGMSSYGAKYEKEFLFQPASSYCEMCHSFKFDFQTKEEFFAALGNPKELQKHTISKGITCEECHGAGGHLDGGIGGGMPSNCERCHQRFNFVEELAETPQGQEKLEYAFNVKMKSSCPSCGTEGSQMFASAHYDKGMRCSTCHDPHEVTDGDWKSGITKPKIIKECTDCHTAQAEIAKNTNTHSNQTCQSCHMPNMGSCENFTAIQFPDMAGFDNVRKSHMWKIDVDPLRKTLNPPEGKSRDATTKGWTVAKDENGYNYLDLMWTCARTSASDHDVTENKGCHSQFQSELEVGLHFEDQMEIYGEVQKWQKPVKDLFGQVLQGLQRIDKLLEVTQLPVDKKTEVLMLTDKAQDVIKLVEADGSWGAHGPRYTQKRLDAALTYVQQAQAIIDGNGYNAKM
UniProt Q8EK38: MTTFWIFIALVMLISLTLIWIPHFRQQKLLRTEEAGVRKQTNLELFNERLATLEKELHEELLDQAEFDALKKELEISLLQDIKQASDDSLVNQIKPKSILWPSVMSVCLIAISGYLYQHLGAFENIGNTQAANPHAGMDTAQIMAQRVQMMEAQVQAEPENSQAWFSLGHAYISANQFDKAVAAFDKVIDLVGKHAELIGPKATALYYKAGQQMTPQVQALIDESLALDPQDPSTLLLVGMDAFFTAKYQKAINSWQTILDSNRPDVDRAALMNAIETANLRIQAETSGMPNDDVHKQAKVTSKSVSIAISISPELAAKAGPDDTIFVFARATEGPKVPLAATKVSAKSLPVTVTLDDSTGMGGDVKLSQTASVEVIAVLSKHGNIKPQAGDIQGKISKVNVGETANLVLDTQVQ

Target: SirA sulfite reductase (SO_0479) (Shewanella oneidensis MR-1) (UniProt Q8EJI6)
Experiment: two-hybrid; BacterioMatch II bacterial two-hybrid in the E. coli reporter strain; bait in pBT, target in pTRG, both orientations; serial dilutions spotted on M9, M9 + 3AT and M9 + 3AT with 12.5 µg/mL streptomycin, 37 °C for up to 48 hrs

Row | binding | Substance
1 | binds | SirG apocytochrome c chaperone (SO_0482) (from UniProt Q8EJI3)
2 | binds | CcmI apocytochrome c chaperone (SO_0265) (from UniProt Q8EK38)
